Test results from PubChem BioAssay (EPA / NIEHS).
This list was built around the results that the source calls inconclusive (neither active nor inactive); the mix of calls is not that of the screen. Potencies of inconclusive entries are doubtful fits and often do not repeat. The source made the active and inactive calls. How the source made its calls: active means hit-call score of the fitted dose curve at least 0.9, where 1 is the maximum; inconclusive means response in the unintended direction; inactive means score below 0.9.

Experiment: ACEA_ER_AUC_viability: ACEA Biosciences xCELLigence Real-Time Cell Analysis on Estrogen Receptor Agonism for Viability (AID 2283782);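 further: continuous compound exposure with impedance area under curve over 80 h; hit means loss of impedance signal meaning reduced cell growth or viability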
How it was run: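 T-47D human breast cells in phenol red-free RPMI1640 with 10% charcoal-stripped FBS were dosed with an 8-point 1:4 dilution series from 100 uM top final concentration, in duplicate. Impedance-based growth was followed for 80 h; AUC analysed versus DMSO.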

**Q.** Which AC50 does the source give for `CN(C)c1ccc(C(=N)c2ccc(N(C)C)cc2)cc1` here?
**A.** active: 32.3 µM

**Q.** For `O=C(O)/C=C/c1ccccc1`, which AC50 is on record?
**A.** inconclusive: 1.75 µM

**Q.** With `OCC(F)(F)C(F)(F)C(F)(F)C(F)(F)C(F)(F)C(F)(F)CO` as the compound, how does the AC50 read?
**A.** inconclusive: 0.259 µM

**Q.** With `CC(C)(O)C(=O)c1ccccc1` as the compound, how does the outcome read?
**A.** inactive

**Q.** With `C=CN1CCCC1=O` as the compound, how does the AC50 read?
**A.** inconclusive: 50 µM

**Q.** Which outcome does the source give for `C=CC(=C)CCC=C(C)C` here?
**A.** inactive

**Q.** With `CO[Si](C)(OC)c1ccccc1` as the compound, how does the outcome read?
**A.** inactive

**Q.** Which AC50 does the source give for `Cc1ccc([N+](=O)[O-])c(C)c1` here?
**A.** inconclusive: 17.7 µM

**Q.** Which AC50 does the source give for `CCOC(=O)C(C)Oc1ccc(Oc2cnc3cc(Cl)ccc3n2)cc1` (centres undefined) here?
**A.** inconclusive: 0.0238 µM

**Q.** Which AC50 does the source give for `CC(C)(C)C1CCCCC1O` (centres undefined) here?
**A.** active: 77.7 µM

**Q.** Which outcome does the source give for `c1ccc2[nH]c(-c3cscn3)nc2c1` here?
**A.** inactive

**Q.** Which outcome does the source give for `Nc1ccc(C(=O)OCCCOC(=O)c2ccc(N)cc2)cc1` here?
**A.** inactive

**Q.** For `CCCCCC1=CCCC1=O`, which AC50 is on record?
**A.** inconclusive: 0.607 µM

**Q.** For `FC(F)(F)C(F)(F)C(F)(F)CI`, which outcome is on record?
**A.** inactive

**Q.** For `O=S(=O)(OCC(F)(F)F)C(F)(F)C(F)(F)C(F)(F)C(F)(F)F`, which outcome is on record?
**A.** inactive

**Q.** With `Brc1ccc(Br)c(Br)c1` as the compound, how does the AC50 read?
**A.** active: 34.9 µM

**Q.** For `OC(CCl)CCl`, which AC50 is on record?
**A.** inconclusive: 50 µM

**Q.** Which outcome does the source give for `CCNc1cccc(C)c1` here?
**A.** inactive

**Q.** With `CC(C)=CC(=O)O` as the compound, how does the AC50 read?
**A.** inconclusive: 2.77 µM

**Q.** With `CC=CC(=O)C1=C(C)C=CCC1(C)C` as the compound, how does the outcome read?
**A.** inactive

**Q.** For `O=C(O)c1ccccc1C(=O)OCc1ccccc1`, which outcome is on record?
**A.** inactive

**Q.** For `C=C1C[C@H]2[C@@H]3C=C(C)C4=CC(=O)CC[C@]4(C)[C@H]3CC[C@]2(C)[C@@]1(OC(C)=O)C(C)=O`, which AC50 is on record?
**A.** inconclusive: 0.0018 µM

**Q.** For `C=C[Si](C)(C)O[Si](C)(C)C=C`, which outcome is on record?
**A.** inactive

**Q.** Which outcome does the source give for `CCCCCCCCC` here?
**A.** inactive

**Q.** For `CC(C)=CCCC(C)=CC#N`, which AC50 is on record?
**A.** inconclusive: 10.2 µM

**Q.** With `O=C(CC(=O)C(F)(F)C(F)(F)C(F)(F)F)c1cccs1` as the compound, how does the AC50 read?
**A.** active: 113 µM

**Q.** With `CC(O)C(=O)O` (centres undefined) as the compound, how does the AC50 read?
**A.** inconclusive: 0.107 µM

**Q.** Which AC50 does the source give for `O=C1OC2(c3ccccc31)c1cc(Br)c(O)c(Br)c1Oc1c2cc(Br)c(O)c1Br` here?
**A.** inconclusive: 22.1 µM

**Q.** For `CCCCNc1ccccc1`, which AC50 is on record?
**A.** inconclusive: 22.8 µM

**Q.** Which AC50 does the source give for `CCOc1ccc2[nH]cc(C(=O)NCc3ccccc3)c(=O)c2n1` here?
**A.** inconclusive: 50 µM

**Q.** For `N#Cc1ccccc1O`, which AC50 is on record?
**A.** inconclusive: 50 µM

**Q.** Which AC50 does the source give for `CC[N+](CC)(CC)Cc1ccccc1` here?
**A.** inconclusive: 0.0583 µM

**Q.** Which outcome does the source give for `Cc1cccc(N)n1` here?
**A.** inactive

**Q.** Which AC50 does the source give for `CC1=CCC(C(C)C)C=C1` (centres undefined) here?
**A.** inconclusive: 20.8 µM

**Q.** Which outcome does the source give for `Nc1ccc(S(=O)(=O)O)c(N)c1` here?
**A.** inactive

**Q.** Which AC50 does the source give for `CCCCCCCCCCCCCCCCCC(=O)O` here?
**A.** inconclusive: 1.48 µM

**Q.** With `CC(C)CCCCCCOC(=O)C1CCCCC1C(=O)OCCCCCCC(C)C` (centres undefined) as the compound, how does the AC50 read?
**A.** inconclusive: 50 µM

**Q.** With `O=C1C(N(CO)C(=O)NCO)N(CO)C(=O)N1CO` (centres undefined) as the compound, how does the outcome read?
**A.** inactive

**Q.** For `CCC(=O)OCC=Cc1ccccc1`, which AC50 is on record?
**A.** inconclusive: 10.1 µM
